Assay results from article PMC6281644.
Results are given in words; binding and its absence hold for the method and conditions named. In cells and extracts the contact can be indirect. Some results given as binding are weak or reduced against the parent protein; the word gives no strength.

The chains behind the UniProt entries cited, without tags or fusion partners.
UniProt F4JNA9: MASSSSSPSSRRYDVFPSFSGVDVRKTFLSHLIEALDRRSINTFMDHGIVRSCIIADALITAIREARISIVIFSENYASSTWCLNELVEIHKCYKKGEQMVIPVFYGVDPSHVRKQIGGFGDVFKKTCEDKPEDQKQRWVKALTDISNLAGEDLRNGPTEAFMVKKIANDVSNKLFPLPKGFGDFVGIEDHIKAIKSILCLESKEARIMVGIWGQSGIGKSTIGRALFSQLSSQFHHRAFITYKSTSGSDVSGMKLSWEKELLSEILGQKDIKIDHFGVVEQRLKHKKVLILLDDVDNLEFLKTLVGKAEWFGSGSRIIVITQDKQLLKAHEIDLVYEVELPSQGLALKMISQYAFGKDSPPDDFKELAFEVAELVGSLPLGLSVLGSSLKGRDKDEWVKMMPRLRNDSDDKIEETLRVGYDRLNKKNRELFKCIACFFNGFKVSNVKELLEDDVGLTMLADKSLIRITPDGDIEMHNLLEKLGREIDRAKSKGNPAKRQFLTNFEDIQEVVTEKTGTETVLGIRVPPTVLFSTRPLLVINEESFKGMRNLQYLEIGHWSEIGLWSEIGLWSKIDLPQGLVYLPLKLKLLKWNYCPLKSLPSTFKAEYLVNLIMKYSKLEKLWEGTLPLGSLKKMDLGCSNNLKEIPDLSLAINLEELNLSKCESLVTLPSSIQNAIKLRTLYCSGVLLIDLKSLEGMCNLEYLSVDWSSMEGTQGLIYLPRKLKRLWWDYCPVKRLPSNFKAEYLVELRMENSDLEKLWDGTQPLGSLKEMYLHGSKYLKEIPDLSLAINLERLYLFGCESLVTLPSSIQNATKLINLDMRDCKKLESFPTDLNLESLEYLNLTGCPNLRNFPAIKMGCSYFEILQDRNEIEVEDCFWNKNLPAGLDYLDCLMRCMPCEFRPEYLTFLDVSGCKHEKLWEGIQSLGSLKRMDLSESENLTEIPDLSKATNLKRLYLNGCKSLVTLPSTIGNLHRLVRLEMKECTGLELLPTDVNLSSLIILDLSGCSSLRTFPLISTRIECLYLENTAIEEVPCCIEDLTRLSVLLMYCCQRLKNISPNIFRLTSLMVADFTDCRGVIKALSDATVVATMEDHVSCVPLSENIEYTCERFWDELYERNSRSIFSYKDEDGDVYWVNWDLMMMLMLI

Columns and labels:
[1] = target: GFP-HaRxL103^Emoy2 (Hyaloperonospora arabidopsidis (isolate Emoy2)); assay: co-IP; cytoplasmic protein extract of N. benthamiana leaves at 2 dpi; MACS MicroBeads with GFP antibody; washed with lysis buffer; blots with anti-GFP and anti-FLAG
[2] = target: GFP-HaRxL103^Emoy2 (Hyaloperonospora arabidopsidis (isolate Emoy2)); assay: co-IP; extracts of N. benthamiana leaves co-expressing both proteins; immunoprecipitation with MACS MicroBeads with GFP antibody; blots with anti-GFP and anti-FLAG
[3] = target: GFP-HaRxL103^Emoy2 (Hyaloperonospora arabidopsidis (isolate Emoy2)); assay: co-IP; nuclear protein extract of N. benthamiana leaves at 2 dpi; MACS MicroBeads with GFP antibody; washed with nuclei resuspension buffer; blots with anti-GFP and anti-FLAG

Measured: binding

RPP4-FLAG (from UniProt F4JNA9 1-1147) (receptor)
binds: all assays above
